In the supplement of paper PMC10849652:
The list shows a part of the results.

Chains of the proteins cited; added tags and fusions are not shown. Lines headed by an entry give the natural chain unless they say otherwise; changes in a name come on top.
UniProt Q9Y5X3: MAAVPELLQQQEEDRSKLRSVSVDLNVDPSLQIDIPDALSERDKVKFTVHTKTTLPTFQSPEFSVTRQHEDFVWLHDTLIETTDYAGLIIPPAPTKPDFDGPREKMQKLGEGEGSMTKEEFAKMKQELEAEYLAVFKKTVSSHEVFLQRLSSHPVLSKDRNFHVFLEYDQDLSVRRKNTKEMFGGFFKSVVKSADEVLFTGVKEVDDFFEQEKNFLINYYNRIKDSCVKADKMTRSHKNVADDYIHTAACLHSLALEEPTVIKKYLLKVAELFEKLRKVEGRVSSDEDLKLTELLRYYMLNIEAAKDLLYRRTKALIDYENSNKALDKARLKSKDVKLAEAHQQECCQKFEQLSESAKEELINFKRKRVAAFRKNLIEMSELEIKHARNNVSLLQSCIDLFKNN
UniProt Q8IYB5: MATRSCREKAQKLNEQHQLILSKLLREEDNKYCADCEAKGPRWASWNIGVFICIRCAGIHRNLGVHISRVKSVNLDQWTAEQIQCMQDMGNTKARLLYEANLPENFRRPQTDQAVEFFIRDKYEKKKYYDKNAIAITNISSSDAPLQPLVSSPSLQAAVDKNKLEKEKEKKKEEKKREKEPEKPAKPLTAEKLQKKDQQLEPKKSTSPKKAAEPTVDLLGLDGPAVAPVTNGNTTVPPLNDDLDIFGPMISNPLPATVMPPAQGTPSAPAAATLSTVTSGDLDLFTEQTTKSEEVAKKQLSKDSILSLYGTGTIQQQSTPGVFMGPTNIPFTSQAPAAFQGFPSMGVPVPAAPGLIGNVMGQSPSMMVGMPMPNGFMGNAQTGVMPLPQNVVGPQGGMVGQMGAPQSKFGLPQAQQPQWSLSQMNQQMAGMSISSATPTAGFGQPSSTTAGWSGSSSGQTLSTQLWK
UniProt P08621, whole entry, looked up: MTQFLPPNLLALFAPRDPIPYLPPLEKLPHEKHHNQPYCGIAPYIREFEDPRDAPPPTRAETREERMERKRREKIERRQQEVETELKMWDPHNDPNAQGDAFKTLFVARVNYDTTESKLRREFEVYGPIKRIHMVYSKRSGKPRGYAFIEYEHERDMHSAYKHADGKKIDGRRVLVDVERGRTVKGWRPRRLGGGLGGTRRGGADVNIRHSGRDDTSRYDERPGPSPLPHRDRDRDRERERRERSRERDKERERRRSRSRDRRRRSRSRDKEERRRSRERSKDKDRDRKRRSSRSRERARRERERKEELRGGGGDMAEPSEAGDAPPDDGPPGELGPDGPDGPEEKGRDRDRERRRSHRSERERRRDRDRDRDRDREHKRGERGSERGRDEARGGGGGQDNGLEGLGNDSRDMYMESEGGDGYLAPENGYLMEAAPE
UniProt P04179: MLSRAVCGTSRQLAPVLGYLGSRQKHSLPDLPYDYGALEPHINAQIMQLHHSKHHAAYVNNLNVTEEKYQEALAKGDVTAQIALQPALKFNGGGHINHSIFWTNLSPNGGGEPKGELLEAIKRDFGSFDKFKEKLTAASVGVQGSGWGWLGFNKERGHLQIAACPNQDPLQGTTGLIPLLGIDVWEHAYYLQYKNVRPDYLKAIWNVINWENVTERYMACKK
UniProt P62304, whole entry, looked up: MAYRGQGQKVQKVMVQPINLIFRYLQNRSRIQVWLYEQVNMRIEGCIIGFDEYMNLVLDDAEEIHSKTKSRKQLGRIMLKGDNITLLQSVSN
UniProt Q6GMV2: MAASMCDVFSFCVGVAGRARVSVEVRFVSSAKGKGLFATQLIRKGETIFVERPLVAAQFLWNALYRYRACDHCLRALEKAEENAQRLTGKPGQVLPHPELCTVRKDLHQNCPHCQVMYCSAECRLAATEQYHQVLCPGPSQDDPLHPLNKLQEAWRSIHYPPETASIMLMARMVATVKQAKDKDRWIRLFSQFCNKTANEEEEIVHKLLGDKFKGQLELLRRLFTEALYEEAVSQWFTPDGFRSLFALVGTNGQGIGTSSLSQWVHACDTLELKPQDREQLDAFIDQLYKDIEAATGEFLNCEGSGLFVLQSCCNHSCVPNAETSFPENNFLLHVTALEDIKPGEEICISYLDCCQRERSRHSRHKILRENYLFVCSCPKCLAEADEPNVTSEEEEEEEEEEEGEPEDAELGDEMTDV
UniProt O00193: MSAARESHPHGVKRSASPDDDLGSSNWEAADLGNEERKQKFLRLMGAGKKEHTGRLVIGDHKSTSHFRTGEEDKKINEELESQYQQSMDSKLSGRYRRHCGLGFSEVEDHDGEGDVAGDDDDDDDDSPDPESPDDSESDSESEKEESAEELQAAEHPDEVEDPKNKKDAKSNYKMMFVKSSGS
UniProt O75391: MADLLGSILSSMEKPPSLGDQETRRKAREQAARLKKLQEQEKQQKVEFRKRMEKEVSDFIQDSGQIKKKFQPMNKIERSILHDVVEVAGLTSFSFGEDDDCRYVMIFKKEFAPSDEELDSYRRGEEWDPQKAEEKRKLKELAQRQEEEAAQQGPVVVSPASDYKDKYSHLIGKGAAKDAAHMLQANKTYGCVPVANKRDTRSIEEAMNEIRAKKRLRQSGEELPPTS
UniProt O00161: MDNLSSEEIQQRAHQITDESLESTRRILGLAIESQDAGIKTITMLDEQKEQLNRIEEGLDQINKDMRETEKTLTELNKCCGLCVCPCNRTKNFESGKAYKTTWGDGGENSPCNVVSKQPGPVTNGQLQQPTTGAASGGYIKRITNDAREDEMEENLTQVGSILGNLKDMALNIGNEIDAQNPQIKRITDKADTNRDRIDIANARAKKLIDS
UniProt Q15599: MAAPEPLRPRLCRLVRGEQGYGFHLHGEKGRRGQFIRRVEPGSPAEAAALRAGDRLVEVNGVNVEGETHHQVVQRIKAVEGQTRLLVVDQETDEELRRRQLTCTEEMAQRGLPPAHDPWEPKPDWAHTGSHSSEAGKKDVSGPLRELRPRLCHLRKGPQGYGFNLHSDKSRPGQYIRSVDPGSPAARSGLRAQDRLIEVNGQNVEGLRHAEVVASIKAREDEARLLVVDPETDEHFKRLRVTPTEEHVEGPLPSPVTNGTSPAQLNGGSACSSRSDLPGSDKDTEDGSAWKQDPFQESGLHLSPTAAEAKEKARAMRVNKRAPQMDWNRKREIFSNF
UniProt P18583: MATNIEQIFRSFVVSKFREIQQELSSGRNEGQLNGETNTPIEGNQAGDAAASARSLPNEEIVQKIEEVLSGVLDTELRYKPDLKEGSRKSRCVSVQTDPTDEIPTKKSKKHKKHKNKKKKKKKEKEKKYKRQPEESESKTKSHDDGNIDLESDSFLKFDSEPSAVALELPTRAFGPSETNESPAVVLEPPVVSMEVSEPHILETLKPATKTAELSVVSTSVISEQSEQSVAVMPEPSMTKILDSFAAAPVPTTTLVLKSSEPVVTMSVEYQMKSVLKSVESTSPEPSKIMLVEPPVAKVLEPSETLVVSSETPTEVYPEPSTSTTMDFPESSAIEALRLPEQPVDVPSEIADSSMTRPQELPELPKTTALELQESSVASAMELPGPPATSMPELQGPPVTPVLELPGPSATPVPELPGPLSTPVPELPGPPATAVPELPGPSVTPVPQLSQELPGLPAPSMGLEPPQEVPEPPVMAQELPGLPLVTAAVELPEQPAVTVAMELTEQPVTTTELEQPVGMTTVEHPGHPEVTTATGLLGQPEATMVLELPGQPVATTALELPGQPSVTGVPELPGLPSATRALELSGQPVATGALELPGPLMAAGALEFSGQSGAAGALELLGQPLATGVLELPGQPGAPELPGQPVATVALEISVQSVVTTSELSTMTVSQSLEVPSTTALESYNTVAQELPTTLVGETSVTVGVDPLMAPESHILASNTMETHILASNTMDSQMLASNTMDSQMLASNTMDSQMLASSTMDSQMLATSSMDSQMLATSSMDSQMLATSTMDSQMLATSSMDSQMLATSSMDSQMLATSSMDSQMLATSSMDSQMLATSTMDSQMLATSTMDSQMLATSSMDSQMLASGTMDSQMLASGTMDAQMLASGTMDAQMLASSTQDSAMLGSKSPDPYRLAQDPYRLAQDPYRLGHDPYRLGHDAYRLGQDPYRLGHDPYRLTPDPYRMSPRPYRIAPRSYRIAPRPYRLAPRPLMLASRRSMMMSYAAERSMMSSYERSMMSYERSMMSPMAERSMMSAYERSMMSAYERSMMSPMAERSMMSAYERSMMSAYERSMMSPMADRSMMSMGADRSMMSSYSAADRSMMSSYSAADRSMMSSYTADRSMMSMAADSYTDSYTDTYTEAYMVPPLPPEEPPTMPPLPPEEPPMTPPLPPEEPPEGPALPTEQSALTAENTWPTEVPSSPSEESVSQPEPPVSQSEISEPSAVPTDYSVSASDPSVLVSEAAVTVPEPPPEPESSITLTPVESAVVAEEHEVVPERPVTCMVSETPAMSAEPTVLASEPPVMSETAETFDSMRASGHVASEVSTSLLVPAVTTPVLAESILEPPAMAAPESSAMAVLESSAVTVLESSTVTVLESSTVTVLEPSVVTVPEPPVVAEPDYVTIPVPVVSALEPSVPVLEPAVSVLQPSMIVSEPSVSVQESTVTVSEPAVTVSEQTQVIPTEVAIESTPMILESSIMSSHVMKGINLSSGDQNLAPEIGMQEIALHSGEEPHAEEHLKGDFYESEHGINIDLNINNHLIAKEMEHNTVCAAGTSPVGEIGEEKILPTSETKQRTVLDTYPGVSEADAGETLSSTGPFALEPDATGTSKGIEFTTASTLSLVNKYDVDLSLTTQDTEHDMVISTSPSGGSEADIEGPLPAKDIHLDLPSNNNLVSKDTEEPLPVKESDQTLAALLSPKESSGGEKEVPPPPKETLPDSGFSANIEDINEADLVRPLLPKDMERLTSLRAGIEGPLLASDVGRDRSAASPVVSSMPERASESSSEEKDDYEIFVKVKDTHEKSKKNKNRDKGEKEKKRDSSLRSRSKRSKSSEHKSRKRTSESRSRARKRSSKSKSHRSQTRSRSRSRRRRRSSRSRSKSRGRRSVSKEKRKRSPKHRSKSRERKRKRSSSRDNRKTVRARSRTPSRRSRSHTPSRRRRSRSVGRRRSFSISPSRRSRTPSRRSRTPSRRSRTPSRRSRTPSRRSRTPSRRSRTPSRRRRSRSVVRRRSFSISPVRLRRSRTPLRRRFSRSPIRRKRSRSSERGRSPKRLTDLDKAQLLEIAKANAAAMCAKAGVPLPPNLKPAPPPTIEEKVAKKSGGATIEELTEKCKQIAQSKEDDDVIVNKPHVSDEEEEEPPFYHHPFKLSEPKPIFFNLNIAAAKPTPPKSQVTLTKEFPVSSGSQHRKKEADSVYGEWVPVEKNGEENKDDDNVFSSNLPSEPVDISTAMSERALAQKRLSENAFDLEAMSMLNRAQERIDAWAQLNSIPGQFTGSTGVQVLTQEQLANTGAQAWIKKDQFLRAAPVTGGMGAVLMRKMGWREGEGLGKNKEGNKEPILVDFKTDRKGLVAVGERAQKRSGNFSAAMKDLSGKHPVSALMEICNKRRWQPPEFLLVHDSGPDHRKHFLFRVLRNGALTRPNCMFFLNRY
UniProt B2RUZ4: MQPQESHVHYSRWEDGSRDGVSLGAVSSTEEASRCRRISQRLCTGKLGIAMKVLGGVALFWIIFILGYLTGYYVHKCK
UniProt P08579, whole entry, looked up: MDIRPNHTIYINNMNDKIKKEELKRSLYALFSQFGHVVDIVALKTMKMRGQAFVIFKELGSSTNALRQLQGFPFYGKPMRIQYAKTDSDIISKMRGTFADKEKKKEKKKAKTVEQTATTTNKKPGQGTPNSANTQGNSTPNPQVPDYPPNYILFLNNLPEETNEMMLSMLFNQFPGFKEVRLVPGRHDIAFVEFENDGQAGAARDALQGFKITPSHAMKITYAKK
UniProt Q8N5G0: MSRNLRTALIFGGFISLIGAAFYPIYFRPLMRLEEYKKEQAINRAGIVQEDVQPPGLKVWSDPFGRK
UniProt Q9H0W8: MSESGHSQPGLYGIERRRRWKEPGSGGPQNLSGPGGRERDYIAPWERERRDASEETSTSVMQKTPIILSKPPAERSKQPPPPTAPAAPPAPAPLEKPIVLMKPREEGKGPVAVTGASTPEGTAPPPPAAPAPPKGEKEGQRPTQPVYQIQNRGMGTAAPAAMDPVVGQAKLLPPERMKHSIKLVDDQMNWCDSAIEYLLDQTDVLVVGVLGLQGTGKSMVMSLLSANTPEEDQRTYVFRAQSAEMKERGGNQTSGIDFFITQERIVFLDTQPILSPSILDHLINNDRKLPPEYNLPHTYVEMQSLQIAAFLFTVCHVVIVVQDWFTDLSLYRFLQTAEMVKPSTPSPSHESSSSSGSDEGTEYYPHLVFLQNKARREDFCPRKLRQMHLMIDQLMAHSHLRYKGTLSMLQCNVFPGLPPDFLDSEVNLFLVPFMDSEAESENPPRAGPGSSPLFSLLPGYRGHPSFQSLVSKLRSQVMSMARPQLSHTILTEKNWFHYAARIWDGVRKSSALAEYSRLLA
UniProt Q15506: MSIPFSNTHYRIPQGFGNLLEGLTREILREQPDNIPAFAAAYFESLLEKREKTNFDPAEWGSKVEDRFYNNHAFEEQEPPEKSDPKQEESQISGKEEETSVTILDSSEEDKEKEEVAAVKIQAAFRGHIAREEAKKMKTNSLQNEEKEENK

Key:
Test in all cases: log2 fold change, soluble protein after heating vs DMSO (PISA); higher = thermal stabilisation; K562 cells, 10 uM, 30 min; active = over 0.2 and 3.5 SD of the protein, either way, in both replicates (recomputed)
[1] = compound: C#Cc1cccc(Nc2ncnc3cc(OCCOC)c(OCCOC)cc23)c1 [erlotinib]
Method in brief: (§1)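 Thermal stability values are relative to control samples and come from duplicates. They are expressed as log2 fold changes. For measurement, K562 cells (2×10^6 cells/mL) received 10 μM compound for 30 min, and aliquots were heated for 3 min over 48°C-58°C, pooled, and extracted at 4°C in PBS with 0.5% NP-40. Soluble protein, the supernatant after 21,000xg for 90 min, was quantified by TMTpro 16plex LC-MS/MS with equalised channel sums.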

[2] = compound: C/C(=N\NC(=O)C1=CC(=CC=C1)S(=O)(=O)N2CCOCC2)/C3=C(C=CC(=C3)Cl)O
Method in brief: as §1

[3] = compound: C1=CC(=C(C=C1Cl)C2=NC3=NC=CN=C3C(=N2)NC4=CC=NC=C4)F
Method in brief: as §1

[4] = compound: C1=CC(=CC=C1C2=NC3=C(N2)C=C(C=C3)C(=O)N)OC4=CC=C(C=C4)Cl
Method in brief: as §1

[5] = compound: C1=CC2=C(C=CC(=C2)/C=C\3/C(=O)NC(=NCC4=CC=CS4)S3)N=C1
Method in brief: as §1

[6] = compound: C1=CC2=NC=CN=C2C=C1/C=C/3\C(=O)NC(=O)S3
Method in brief: as §1

[7] = compound: C1=CC=C(C=C1)C2=NC(=C(N2)C3=CC=NC=C3)C4=CC(=C(C=C4)Cl)O
Method in brief: as §1

[8] = compound: C1=CC=C2C(=C1)C3=NNC4=CC=CC(=C43)C2=O
Method in brief: as §1

[9] = compound: C1CCN(C1)C(=O)NC2=CC=CC(=C2)NC3=NC=C(C(=N3)NCCC4=CN=CN4)Br
Method in brief: as §1

[10] = compound: C1CN(CCC1(CC2=CC=C(C=C2)Cl)N)C3=NC=NC4=C3C=CN4
Method in brief: as §1

Measured: log2 fold change

SMAD5 (UniProt Q99717)
inactive: [1] -0.236 | [2] -0.026 | [3] 0.274 | [4] -0.402 | [5] -0.045 | [6] 0.023 | [7] 0.094 | [8] 0.029 | [9] -0.052 | [10] -0.011

SNX5 (UniProt Q9Y5X3)
inactive: [1] 0.033 | [2] 0.09 | [3] 0.042 | [4] 0.022 | [5] 0.057 | [6] -0.024 | [7] -0.05 | [8] -0.038 | [9] 0.077 | [10] -0.009

SPAG5 (UniProt Q96R06)
inactive: [1] 0.095 | [2] -0.17 | [3] -0.183 | [4] 0 | [5] 0.178 | [6] 0.076 | [7] -0.144 | [8] -0.079 | [9] -0.06 | [10] -0.134

SP1 (UniProt P08047)
inactive: [1] -0.055 | [2] -0.03 | [3] -0.046 | [4] 0.043 | [5] 0.006 | [6] 0.01 | [7] 0.001 | [8] -0.031 | [9] 0.047 | [10] -0.019

SMARCAD1 isoform 2 (UniProt Q9H4L7)
inactive: [1] 0.089 | [2] 0.052 | [3] 0.071 | [4] 0.007 | [5] 0.05 | [6] -0.026 | [7] 0.025 | [8] 0.022 | [9] -0.02 | [10] -0.052

SMAP1 isoform 2 (UniProt Q8IYB5)
inactive: [1] -0.015 | [2] 0.086 | [3] 0.002 | [4] 0.004 | [5] -0.003 | [6] 0.033 | [7] 0.001 | [8] -0.003 | [9] -0.074 | [10] 0.028

SNRNP70 (UniProt P08621)
inactive: [1] -0.04 | [2] -0.112 | [3] -0.37 | [4] 0.027 | [5] -0.047 | [6] 0.013 | [7] -0.17 | [8] -0.057 | [9] 0.026 | [10] -0.253

SORBS1 isoform 12 (UniProt Q9BX66)
inactive: [1] 0.011 | [2] -0.008 | [3] -0.051 | [4] 0.005 | [5] 0.024 | [6] 0.016 | [7] 0.046 | [8] -0.028 | [9] 0.025 | [10] 0.044

SOD2 (UniProt P04179)
inactive: [1] 0.024 | [2] -0.025 | [3] 0.026 | [4] -0.033 | [5] -0.088 | [6] 0.018 | [7] 0.045 | [8] 0.013 | [9] 0.04 | [10] 0.058

SMC1A (UniProt Q14683)
inactive: [1] 0 | [2] 0.061 | [3] 0.027 | [4] 0.004 | [5] -0.003 | [6] -0.003 | [7] -0.015 | [8] -0.137 | [9] -0.051 | [10] 0.004

SNRPE (UniProt P62304)
inactive: [1] -0.045 | [2] -0.096 | [3] -0.05 | [4] -0.001 | [5] -0.012 | [6] 0.048 | [7] -0.036 | [8] 0.005 | [9] 0.023 | [10] 0

SMYD5 (UniProt Q6GMV2)
inactive: [1] 0 | [2] 0.026 | [3] 0.073 | [4] 0.019 | [5] 0.027 | [6] 0.022 | [7] -0.038 | [8] 0.015 | [9] 0.008 | [10] 0.01

SMAP (UniProt O00193)
inactive: [1] -0.006 | [2] 0.026 | [3] 0.119 | [4] 0.017 | [5] -0.063 | [6] 0.073 | [7] -0.012 | [8] 0.015 | [9] 0.006 | [10] 0.047

SOAT1 (UniProt P35610)
inactive: [1] 0.174 | [2] 0.099 | [3] -0.034 | [4] -0.063 | [5] 0.141 | [6] 0.063 | [7] 0.074 | [8] -0.038 | [9] 0.001 | [10] 0.026

SPAG7 (UniProt O75391)
inactive: [1] 0.012 | [2] 0.002 | [3] 0.049 | [4] -0.007 | [5] -0.078 | [6] 0.059 | [7] -0.055 | [8] 0.048 | [9] 0.006 | [10] 0.031

SNAP91 (UniProt O60641)
inactive: [1] 0.047 | [2] -0.003 | [3] 0.083 | [4] -0.022 | [5] 0.01 | [6] -0.023 | [7] 0.032 | [8] 0.019 | [9] 0.008 | [10] 0.031

SNAP23 (UniProt O00161)
inactive: [1] -0.017 | [2] 0.007 | [3] -0.001 | [4] 0.015 | [5] -0.045 | [6] 0.04 | [7] -0.021 | [8] 0.051 | [9] 0.015 | [10] 0.002

SMAP2 (UniProt Q8WU79)
inactive: [1] -0.044 | [2] 0.13 | [3] -0.005 | [4] -0.032 | [5] -0.029 | [6] 0.019 | [7] -0.015 | [8] 0.017 | [9] -0.086 | [10] 0.038

SLC9A3R2 (UniProt Q15599)
inactive: [1] -0.004 | [2] -0.022 | [3] -0.001 | [4] 0.033 | [5] -0.008 | [6] 0.003 | [7] -0.029 | [8] -0.004 | [9] -0.025 | [10] 0.02

SP3 (UniProt Q02447)
inactive: [1] 0.034 | [2] -0.028 | [3] 0 | [4] 0.059 | [5] 0.003 | [6] -0.051 | [7] -0.053 | [8] -0.066 | [9] -0.065 | [10] -0.1

SNU13, A0A3B3IUA2
inactive: [1] 0.01 | [2] -0.055 | [3] 0.038 | [4] -0.025 | [5] 0.202 | [6] 0.02 | [7] -0.335 | [8] 0 | [9] 0.123 | [10] 0.064

SON isoform 9 (UniProt P18583)
inactive: [1] -0.099 | [2] -0.236 | [3] -0.092 | [4] 0.205 | [5] 0.058 | [6] 0.056 | [7] -0.112 | [8] 0.02 | [9] 0.022 | [10] 0.033

SMAD2 (UniProt Q15796)
inactive: [1] 0.061 | [2] 0.087 | [3] -0.065 | [4] 0.04 | [5] 0.069 | [6] -0.004 | [7] -0.05 | [8] -0.045 | [9] -0.034 | [10] 0.019

SMIM1 (UniProt B2RUZ4)
inactive: [1] 0.05 | [2] -0.103 | [4] -0.15 | [5] 0.156 | [6] 0.055 | [8] -0.096 | [9] 0.019 | [10] 0.006

SNRPB2 (UniProt P08579)
inactive: [1] -0.032 | [2] -0.056 | [3] -0.01 | [4] -0.019 | [5] -0.034 | [6] 0.042 | [7] -0.054 | [8] -0.015 | [9] 0.057 | [10] -0.026

SNUPN (UniProt O95149)
inactive: [1] -0.091 | [2] 0.032 | [3] 0.136 | [4] -0.019 | [5] 0.069 | [6] 0.037 | [7] -0.085 | [8] -0.053 | [9] 0.024 | [10] -0.061

SMIM20 isoform 2 (UniProt Q8N5G0)
inactive: [1] -0.039 | [2] -0.111 | [4] 0.054 | [5] -0.088 | [6] 0.088 | [7] 0.023 | [8] -0.051 | [9] -0.016 | [10] -0.06
active: [3] 0.427

SP6 (UniProt Q3SY56)
inactive: [1] 0.117 | [2] -0.016 | [3] -0.258 | [4] -0.066 | [5] -0.032 | [6] 0.041 | [7] -0.098 | [8] 0.053 | [9] -0.046 | [10] 0.118

SMG9 (UniProt Q9H0W8)
inactive: [1] 0.031 | [2] 0.02 | [3] -0.115 | [4] -0.038 | [5] -0.005 | [6] 0.053 | [8] 0.071 | [9] -0.082 | [10] 0.08

SPA17 (UniProt Q15506)
inactive: [1] 0.066 | [2] -0.035 | [3] 0.125 | [4] -0.077 | [5] -0.019 | [6] 0.139 | [7] -0.122 | [8] -0.029 | [9] 0.021 | [10] -0.04

Reprinted at random: two entries already listed
SP6 (UniProt Q3SY56)
inactive: [1] 0.117 | [2] -0.016 | [3] -0.258 | [4] -0.066 | [5] -0.032 | [6] 0.041 | [7] -0.098 | [8] 0.053 | [9] -0.046 | [10] 0.118

SMG9 (UniProt Q9H0W8)
inactive: [1] 0.031 | [2] 0.02 | [3] -0.115 | [4] -0.038 | [5] -0.005 | [6] 0.053 | [8] 0.071 | [9] -0.082 | [10] 0.08
